Experimental findings from patent publication US20060292076A1, “Antimicrobial mediated ozone generation” (priority 2002, published 2006) are described below.

The series can be described thus: Oxidation of indigo carmine 1 and ^18O incorporation into cyclic α-ketoamide 2 by different reactive oxygen species. The following applies: H2^18O PB.

Structures are written as SMILES.

For the compound `O=[O+][O-]` [Clone O3, ozone], the “^18O incorporation into 2” value was “yes”.
